Test results from the supplement of paper PMC10849652.
Some of the results follow. Residues, ends and D or L forms follow the SMILES beside them. *: point of attachment. Cbz = O=C(OCc1ccccc1)*

The chains behind the UniProt entries cited, without tags or fusion partners. Where a name states a change or a piece, a line headed by the entry shows the natural chain unless it says otherwise.
UniProt Q9UHW9: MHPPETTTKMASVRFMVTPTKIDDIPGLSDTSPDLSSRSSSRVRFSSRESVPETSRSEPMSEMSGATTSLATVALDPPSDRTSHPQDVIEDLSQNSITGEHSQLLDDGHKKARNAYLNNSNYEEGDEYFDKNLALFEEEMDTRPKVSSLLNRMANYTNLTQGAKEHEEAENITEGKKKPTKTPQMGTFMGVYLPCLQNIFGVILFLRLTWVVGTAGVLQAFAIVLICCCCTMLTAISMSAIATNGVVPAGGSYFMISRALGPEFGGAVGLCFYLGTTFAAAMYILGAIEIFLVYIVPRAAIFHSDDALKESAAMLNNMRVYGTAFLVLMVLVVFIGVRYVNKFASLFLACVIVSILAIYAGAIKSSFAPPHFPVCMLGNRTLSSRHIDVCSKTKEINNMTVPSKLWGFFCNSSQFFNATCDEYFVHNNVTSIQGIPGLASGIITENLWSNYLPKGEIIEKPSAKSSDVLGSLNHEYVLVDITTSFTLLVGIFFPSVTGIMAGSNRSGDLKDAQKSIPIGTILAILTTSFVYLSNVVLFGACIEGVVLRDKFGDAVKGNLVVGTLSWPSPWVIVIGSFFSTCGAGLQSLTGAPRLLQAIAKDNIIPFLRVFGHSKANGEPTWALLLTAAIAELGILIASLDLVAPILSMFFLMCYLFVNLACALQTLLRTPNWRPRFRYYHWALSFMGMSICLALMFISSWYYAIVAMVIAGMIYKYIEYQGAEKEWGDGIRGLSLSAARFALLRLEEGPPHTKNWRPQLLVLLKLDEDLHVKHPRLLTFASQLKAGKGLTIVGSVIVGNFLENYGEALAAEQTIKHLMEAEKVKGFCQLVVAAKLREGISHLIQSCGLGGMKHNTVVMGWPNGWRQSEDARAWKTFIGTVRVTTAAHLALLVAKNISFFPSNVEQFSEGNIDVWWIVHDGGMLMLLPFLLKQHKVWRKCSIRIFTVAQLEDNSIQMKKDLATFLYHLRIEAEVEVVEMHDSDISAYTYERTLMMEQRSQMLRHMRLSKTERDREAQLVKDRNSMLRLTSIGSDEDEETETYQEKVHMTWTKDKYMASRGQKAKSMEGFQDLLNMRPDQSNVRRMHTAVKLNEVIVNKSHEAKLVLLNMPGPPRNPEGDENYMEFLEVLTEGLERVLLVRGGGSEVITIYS
UniProt Q6KCM7: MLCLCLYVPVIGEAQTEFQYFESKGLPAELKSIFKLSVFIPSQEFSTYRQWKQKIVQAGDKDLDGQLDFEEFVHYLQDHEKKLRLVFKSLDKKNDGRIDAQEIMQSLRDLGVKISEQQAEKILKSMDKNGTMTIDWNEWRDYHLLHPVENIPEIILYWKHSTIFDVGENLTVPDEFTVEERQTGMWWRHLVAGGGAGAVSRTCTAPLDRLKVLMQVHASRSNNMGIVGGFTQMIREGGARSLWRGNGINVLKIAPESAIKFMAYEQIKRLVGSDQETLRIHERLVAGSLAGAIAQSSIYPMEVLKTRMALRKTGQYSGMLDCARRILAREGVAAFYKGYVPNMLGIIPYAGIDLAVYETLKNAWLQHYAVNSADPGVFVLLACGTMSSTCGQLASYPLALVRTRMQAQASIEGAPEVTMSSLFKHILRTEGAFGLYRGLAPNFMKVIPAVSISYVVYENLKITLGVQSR
UniProt Q6NUK1: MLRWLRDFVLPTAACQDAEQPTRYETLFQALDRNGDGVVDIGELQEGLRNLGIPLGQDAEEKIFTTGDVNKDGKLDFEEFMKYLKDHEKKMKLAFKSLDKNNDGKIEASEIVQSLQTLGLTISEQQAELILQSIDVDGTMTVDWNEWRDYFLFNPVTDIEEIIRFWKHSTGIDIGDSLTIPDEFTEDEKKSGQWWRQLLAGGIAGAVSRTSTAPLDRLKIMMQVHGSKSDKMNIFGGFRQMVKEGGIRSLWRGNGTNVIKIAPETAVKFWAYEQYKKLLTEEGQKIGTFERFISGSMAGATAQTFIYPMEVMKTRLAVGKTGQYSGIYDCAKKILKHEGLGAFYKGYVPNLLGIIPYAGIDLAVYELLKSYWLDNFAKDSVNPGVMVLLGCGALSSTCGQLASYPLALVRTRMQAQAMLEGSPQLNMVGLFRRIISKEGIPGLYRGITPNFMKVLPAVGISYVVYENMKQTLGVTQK
UniProt P48029: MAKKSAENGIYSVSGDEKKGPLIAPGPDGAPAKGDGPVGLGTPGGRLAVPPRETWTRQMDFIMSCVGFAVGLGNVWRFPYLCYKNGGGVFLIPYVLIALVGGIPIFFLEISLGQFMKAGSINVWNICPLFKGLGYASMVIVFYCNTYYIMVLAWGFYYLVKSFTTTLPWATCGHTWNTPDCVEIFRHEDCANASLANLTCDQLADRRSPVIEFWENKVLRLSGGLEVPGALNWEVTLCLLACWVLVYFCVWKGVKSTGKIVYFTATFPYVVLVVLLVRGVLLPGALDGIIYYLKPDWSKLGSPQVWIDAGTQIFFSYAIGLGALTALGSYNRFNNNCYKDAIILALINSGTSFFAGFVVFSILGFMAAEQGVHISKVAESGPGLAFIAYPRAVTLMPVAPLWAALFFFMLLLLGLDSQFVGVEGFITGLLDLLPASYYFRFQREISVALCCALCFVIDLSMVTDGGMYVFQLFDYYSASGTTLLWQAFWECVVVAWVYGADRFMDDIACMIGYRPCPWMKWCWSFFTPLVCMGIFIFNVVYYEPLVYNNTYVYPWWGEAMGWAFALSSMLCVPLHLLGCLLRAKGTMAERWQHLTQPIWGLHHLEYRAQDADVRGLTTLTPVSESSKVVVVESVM
UniProt Q14542: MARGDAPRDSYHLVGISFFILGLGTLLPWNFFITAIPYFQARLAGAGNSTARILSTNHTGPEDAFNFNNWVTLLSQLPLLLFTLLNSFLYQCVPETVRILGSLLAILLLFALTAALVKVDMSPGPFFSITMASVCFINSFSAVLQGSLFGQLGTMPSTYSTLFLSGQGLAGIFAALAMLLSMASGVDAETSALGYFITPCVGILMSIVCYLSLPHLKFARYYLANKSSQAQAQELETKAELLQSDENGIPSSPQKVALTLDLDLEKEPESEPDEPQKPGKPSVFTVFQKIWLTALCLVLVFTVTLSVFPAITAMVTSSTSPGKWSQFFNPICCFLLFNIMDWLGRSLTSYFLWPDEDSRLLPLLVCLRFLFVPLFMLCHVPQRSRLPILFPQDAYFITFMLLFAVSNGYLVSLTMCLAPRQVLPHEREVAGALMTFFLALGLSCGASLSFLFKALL
UniProt O43772: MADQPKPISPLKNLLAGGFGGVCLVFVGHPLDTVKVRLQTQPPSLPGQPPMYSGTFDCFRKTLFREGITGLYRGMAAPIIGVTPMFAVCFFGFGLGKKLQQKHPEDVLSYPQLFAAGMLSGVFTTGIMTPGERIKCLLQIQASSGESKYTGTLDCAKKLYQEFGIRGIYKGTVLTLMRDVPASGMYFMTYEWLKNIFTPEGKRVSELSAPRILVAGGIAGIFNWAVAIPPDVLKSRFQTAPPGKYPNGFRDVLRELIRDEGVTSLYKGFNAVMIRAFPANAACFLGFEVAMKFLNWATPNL
UniProt Q9H2H9: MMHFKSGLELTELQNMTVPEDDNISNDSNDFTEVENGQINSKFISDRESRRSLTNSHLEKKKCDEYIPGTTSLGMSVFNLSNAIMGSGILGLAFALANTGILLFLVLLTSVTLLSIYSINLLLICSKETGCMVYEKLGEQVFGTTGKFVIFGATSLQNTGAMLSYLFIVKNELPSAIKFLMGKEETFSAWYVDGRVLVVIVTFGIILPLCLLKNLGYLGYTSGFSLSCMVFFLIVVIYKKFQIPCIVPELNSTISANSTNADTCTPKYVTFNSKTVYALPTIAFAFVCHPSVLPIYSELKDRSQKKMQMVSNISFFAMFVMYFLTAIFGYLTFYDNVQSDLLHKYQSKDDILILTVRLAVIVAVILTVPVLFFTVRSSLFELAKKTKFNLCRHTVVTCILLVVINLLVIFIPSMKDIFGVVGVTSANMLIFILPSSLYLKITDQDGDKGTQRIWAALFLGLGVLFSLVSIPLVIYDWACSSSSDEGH
UniProt P55011: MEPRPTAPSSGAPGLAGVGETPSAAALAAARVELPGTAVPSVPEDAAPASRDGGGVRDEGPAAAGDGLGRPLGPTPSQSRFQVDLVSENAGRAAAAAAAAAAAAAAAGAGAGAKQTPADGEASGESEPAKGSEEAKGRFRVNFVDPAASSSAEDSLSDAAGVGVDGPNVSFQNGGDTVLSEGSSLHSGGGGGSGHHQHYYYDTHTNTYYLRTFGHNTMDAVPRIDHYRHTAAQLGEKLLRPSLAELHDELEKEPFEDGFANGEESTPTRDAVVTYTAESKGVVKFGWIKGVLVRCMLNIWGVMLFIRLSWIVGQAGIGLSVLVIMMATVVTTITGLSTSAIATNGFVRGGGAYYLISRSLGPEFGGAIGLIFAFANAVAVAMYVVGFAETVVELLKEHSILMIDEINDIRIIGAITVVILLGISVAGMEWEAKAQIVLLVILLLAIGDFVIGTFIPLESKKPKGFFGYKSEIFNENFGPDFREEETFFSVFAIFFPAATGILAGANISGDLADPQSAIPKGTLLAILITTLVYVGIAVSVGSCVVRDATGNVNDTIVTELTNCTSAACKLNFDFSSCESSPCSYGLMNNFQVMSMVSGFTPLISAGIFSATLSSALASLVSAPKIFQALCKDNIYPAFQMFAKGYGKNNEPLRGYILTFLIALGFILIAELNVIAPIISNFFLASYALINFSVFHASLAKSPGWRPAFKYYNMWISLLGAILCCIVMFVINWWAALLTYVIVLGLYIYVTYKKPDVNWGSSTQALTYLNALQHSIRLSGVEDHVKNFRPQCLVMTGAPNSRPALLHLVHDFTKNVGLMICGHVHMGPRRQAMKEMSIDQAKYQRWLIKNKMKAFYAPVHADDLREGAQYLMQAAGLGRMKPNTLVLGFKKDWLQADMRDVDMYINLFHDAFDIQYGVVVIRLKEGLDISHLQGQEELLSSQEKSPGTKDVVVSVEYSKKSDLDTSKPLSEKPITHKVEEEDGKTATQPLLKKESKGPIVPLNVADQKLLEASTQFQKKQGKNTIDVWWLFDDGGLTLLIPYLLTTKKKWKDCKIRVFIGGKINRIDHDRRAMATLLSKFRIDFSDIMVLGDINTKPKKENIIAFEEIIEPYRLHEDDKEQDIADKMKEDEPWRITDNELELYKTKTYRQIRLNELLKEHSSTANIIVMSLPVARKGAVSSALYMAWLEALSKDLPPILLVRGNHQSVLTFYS
UniProt Q96EP9: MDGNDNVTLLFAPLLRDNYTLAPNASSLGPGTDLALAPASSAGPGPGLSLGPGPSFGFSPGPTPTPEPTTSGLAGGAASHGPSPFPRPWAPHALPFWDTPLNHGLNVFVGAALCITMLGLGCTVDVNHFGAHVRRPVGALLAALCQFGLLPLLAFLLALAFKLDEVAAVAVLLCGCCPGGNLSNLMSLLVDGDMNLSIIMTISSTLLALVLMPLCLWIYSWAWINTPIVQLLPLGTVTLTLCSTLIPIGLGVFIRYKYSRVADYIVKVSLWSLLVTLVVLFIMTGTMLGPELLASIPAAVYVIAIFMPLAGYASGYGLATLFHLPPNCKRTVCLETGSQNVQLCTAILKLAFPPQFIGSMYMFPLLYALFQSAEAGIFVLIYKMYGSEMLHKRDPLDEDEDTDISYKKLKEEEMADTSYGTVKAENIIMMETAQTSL
UniProt Q8WUM9: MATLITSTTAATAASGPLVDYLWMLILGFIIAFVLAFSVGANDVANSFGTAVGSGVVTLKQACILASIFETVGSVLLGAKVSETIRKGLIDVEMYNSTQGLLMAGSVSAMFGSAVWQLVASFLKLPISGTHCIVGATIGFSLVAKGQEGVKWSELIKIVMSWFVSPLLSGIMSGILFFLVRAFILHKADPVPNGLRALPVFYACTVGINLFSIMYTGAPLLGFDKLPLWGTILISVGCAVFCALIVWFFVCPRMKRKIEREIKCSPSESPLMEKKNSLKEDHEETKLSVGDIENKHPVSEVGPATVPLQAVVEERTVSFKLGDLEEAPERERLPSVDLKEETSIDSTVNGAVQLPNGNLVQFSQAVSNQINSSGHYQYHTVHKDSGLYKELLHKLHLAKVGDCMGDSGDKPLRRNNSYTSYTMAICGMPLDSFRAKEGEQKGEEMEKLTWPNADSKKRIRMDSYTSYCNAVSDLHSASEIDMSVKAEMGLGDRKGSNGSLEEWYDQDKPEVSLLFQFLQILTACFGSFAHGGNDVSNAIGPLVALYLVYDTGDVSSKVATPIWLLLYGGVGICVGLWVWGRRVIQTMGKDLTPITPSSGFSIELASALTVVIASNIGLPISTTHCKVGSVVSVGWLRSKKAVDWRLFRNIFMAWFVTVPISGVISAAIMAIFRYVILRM

Legend:
Assay in all cases: log2 fold change, soluble protein after heating vs DMSO (PISA); higher = thermal stabilisation; K562 cells, 10 uM, 30 min; active = over 0.2 and 3.5 SD of the protein, either way, in both replicates (recomputed)
erlotinib = compound: C#Cc1cccc(Nc2ncnc3cc(OCCOC)c(OCCOC)cc23)c1 [erlotinib]
Procedure, shortened: (§1)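 K562 cells (2×10^6 cells/mL) were treated with 10 μM compound for 30 min, and aliquots were heated for 3 min over 48°C-58°C. Pooled aliquots were extracted in PBS with 0.5% NP-40 at 4°C, and the supernatant after 21,000xg for 90 min was measured by TMTpro 16plex LC-MS/MS with channel sums equalised. Reported thermal stability, relative to control samples and from duplicates, is a log2 fold change.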

[1] = compound: C/C(=N\NC(=O)C1=CC(=CC=C1)S(=O)(=O)N2CCOCC2)/C3=C(C=CC(=C3)Cl)O
Procedure, shortened: as §1

[2] = compound: C1=CC(=C(C=C1Cl)C2=NC3=NC=CN=C3C(=N2)NC4=CC=NC=C4)F
Procedure, shortened: as §1

[3] = compound: C1=CC(=CC=C1C2=NC3=C(N2)C=C(C=C3)C(=O)N)OC4=CC=C(C=C4)Cl
Procedure, shortened: as §1

[4] = compound: C1=CC2=C(C=CC(=C2)/C=C\3/C(=O)NC(=NCC4=CC=CS4)S3)N=C1
Procedure, shortened: as §1

[5] = compound: C1=CC2=NC=CN=C2C=C1/C=C/3\C(=O)NC(=O)S3
Procedure, shortened: as §1

[6] = compound: C1=CC=C(C=C1)C2=NC(=C(N2)C3=CC=NC=C3)C4=CC(=C(C=C4)Cl)O
Procedure, shortened: as §1

[7] = compound: C1=CC=C2C(=C1)C3=NNC4=CC=CC(=C43)C2=O
Procedure, shortened: as §1

[8] = compound: C1CCN(C1)C(=O)NC2=CC=CC(=C2)NC3=NC=C(C(=N3)NCCC4=CN=CN4)Br
Procedure, shortened: as §1

[9] = compound: C1CN(CCC1(CC2=CC=C(C=C2)Cl)N)C3=NC=NC4=C3C=CN4
Procedure, shortened: as §1

IRAK-1-4 Inhibitor I = compound: C1COCCN1CCN2C3=CC=CC=C3N=C2NC(=O)C4=CC(=CC=C4)[N+](=O)[O-] [IRAK-1-4 Inhibitor I]
Procedure, shortened: as §1

ibrutinib = compound: C=CC(=O)N1CCC[C@@H](n2nc(-c3ccc(Oc4ccccc4)cc3)c3c(N)ncnc32)C1 [ibrutinib]
Procedure, shortened: as §1

[10] = compound: CC(=O)c1cnc2ccc(-c3cc(Cl)c(O)c(Cl)c3)nc2c1N[C@H]1CC[C@H](CN(C)C)CC1
Procedure, shortened: as §1

ralimetinib = compound: CC(C)(C)Cn1c(N)nc2ccc(-c3[nH]c(C(C)(C)C)nc3-c3ccc(F)cc3)nc21 [ralimetinib]
Procedure, shortened: as §1

[11] = compound: CC(C)(O)CC(=O)NCCn1ccc2ncnc(Nc3ccc(Oc4cccc(C(F)(F)F)c4)c(Cl)c3)c21
Procedure, shortened: as §1

[12] = compound: CC(C)C1=C2N=C(C=C(N2N=C1)NCC3=CC=CC=C3)NCCCCCCN
Procedure, shortened: as §1

[13] = compound: CC(C)C[C@@H](C=O)NC(=O)[C@H](CC(C)C)NC(=O)[C@H](CC(C)C)NC(=O)OCc1ccccc1
Procedure, shortened: as §1

pinometostat = compound: CC(C)N(C[C@H]1O[C@@H](n2cnc3c(N)ncnc32)[C@H](O)[C@@H]1O)[C@H]1C[C@@H](CCc2nc3cc(C(C)(C)C)ccc3[nH]2)C1 [pinometostat]
Procedure, shortened: as §1

[14] = compound: CC1=C(C(CC(=O)N1)C2=CC=C(C=C2)C(F)(F)F)C(=O)NC3=C(C=C4C(=C3)C=NN4)F
Procedure, shortened: as §1

[15] = compound: CC1=C(C2=C(C=C1)C(=O)C3=CC=CC=C3N2CCCN)C
Procedure, shortened: as §1

Measured: log2 fold change

SLC12A6 isoform 2 (UniProt Q9UHW9)
inactive: erlotinib 0.007 | [1] 0.082 | [2] -0.01 | [3] 0.041 | [4] -0.011 | [5] -0.004 | [6] 0.034 | [7] -0.038 | [8] -0.007 | [9] 0.029 | IRAK-1-4 Inhibitor I 0 | ibrutinib 0.108 | [10] -0.089 | ralimetinib 0.004 | [11] -0.018 | [12] -0.017 | [13] -0.02 | pinometostat -0.001 | [14] -0.018 | [15] 0.039

SLC25A25 isoform 3 (UniProt Q6KCM7)
inactive: erlotinib 0.004 | [1] 0.01 | [2] 0.063 | [3] 0.032 | [4] -0.001 | [5] 0.028 | [6] -0.022 | [7] -0.034 | [8] 0.025 | [9] 0.035 | IRAK-1-4 Inhibitor I -0.001 | ibrutinib 0.002 | [10] 0.029 | ralimetinib -0.013 | [11] 0.016 | [12] 0.005 | [13] -0.01 | pinometostat -0.042 | [14] 0.019 | [15] 0.034

SLC35B3 (UniProt Q9H1N7)
inactive: erlotinib 0.048 | [1] -0.101 | [2] -0.021 | [3] 0.092 | [4] 0.162 | [5] 0.012 | [6] 0.041 | [7] -0.02 | [8] -0.03 | [9] -0.014 | IRAK-1-4 Inhibitor I 0.032 | ibrutinib 0.03 | [10] -0.094 | ralimetinib 0.119 | [11] -0.026 | [12] 0.005 | [13] 0.006 | pinometostat 0.031 | [14] 0.082 | [15] -0.028

SLC2A1 (UniProt P11166)
inactive: erlotinib -0.037 | [1] 0.013 | [2] 0 | [3] -0.054 | [4] -0.013 | [5] 0.016 | [6] -0.012 | [7] -0.081 | [8] 0.002 | [9] 0.076 | IRAK-1-4 Inhibitor I 0.031 | ibrutinib 0.014 | [10] -0.053 | ralimetinib -0.06 | [11] 0.008 | [12] 0.06 | [13] 0.007 | pinometostat -0.024 | [14] -0.013 | [15] 0.007

SLC35C1 (UniProt Q96A29)
inactive: erlotinib 0.063 | [1] 0.033 | [2] 0.173 | [3] -0.051 | [4] 0 | [5] 0.065 | [6] -0.035 | [7] -0.014 | [8] 0.043 | [9] 0.059 | IRAK-1-4 Inhibitor I -0.023 | ibrutinib 0.027 | [10] 0.065 | ralimetinib 0.046 | [11] -0.075 | [12] 0.061 | [13] 0.048 | pinometostat 0.073 | [14] -0.037 | [15] -0.042

SLC25A24 (UniProt Q6NUK1)
inactive: erlotinib -0.025 | [1] -0.028 | [2] 0.043 | [3] 0.008 | [4] -0.013 | [5] 0.032 | [6] -0.002 | [7] -0.012 | [8] 0.027 | [9] 0.049 | IRAK-1-4 Inhibitor I 0.022 | ibrutinib 0.015 | [10] 0.012 | ralimetinib -0.045 | [11] 0.003 | [12] 0.04 | [13] 0.018 | pinometostat -0.049 | [14] -0.011 | [15] -0.004

SLC6A8 (UniProt P48029)
inactive: erlotinib 0.026 | [1] 0.021 | [2] 0.051 | [3] 0.041 | [4] -0.044 | [5] 0.126 | [6] 0.003 | [7] -0.028 | [8] -0.003 | [9] 0.035 | IRAK-1-4 Inhibitor I 0.016 | ibrutinib 0.058 | [10] 0.044 | ralimetinib 0.013 | [11] -0.105 | [12] 0.046 | [13] -0.002 | pinometostat -0.009 | [14] 0.17 | [15] 0.183

SLC4A1AP (UniProt Q9BWU0)
inactive: erlotinib 0.011 | [1] 0.044 | [2] -0.025 | [3] -0.003 | [4] 0.067 | [5] 0.029 | [6] -0.002 | [7] -0.026 | [8] -0.032 | [9] -0.013 | IRAK-1-4 Inhibitor I -0.054 | ibrutinib -0.033 | [10] -0.031 | ralimetinib -0.006 | [11] -0.062 | [12] -0.001 | [13] 0.028 | pinometostat -0.007 | [14] -0.006 | [15] -0.163

SLC29A2 (UniProt Q14542)
inactive: erlotinib 0.007 | [1] 0.053 | [2] -0.01 | [3] 0.043 | [4] 0.097 | [5] 0 | [6] 0.059 | [7] -0.004 | [8] -0.012 | [9] 0.123 | IRAK-1-4 Inhibitor I -0.026 | ibrutinib 0.028 | [10] -0.024 | ralimetinib 0.005 | [11] 0.033 | [12] 0.116 | [13] 0.053 | pinometostat -0.115 | [14] -0.007 | [15] 0.103

SLC25A20 (UniProt O43772)
inactive: erlotinib 0.006 | [1] -0.05 | [2] 0.016 | [3] -0.009 | [4] 0 | [5] 0.052 | [6] -0.1 | [7] -0.016 | [8] 0.036 | [9] 0.027 | IRAK-1-4 Inhibitor I 0.014 | ibrutinib 0.033 | [10] 0.026 | ralimetinib -0.107 | [11] -0.009 | [12] 0.054 | [13] -0.025 | pinometostat -0.037 | [14] 0.019 | [15] 0.002

SLC38A1 (UniProt Q9H2H9)
inactive: erlotinib 0.014 | [1] -0.04 | [2] 0.017 | [3] -0.012 | [4] -0.023 | [5] 0.066 | [6] 0.054 | [7] -0.104 | [8] 0.008 | [9] 0.092 | IRAK-1-4 Inhibitor I 0.004 | ibrutinib -0.026 | [10] 0.022 | ralimetinib -0.053 | [11] -0.017 | [12] 0.08 | [13] -0.038 | pinometostat -0.059 | [14] 0.002 | [15] 0.009

Pulled one by one from the entries so far, 2 records:
SLC38A1 (UniProt Q9H2H9)
inactive: erlotinib 0.014 | [1] -0.04 | [2] 0.017 | [3] -0.012 | [4] -0.023 | [5] 0.066 | [6] 0.054 | [7] -0.104 | [8] 0.008 | [9] 0.092 | IRAK-1-4 Inhibitor I 0.004 | ibrutinib -0.026 | [10] 0.022 | ralimetinib -0.053 | [11] -0.017 | [12] 0.08 | [13] -0.038 | pinometostat -0.059 | [14] 0.002 | [15] 0.009

SLC29A2 (UniProt Q14542)
inactive: erlotinib 0.007 | [1] 0.053 | [2] -0.01 | [3] 0.043 | [4] 0.097 | [5] 0 | [6] 0.059 | [7] -0.004 | [8] -0.012 | [9] 0.123 | IRAK-1-4 Inhibitor I -0.026 | ibrutinib 0.028 | [10] -0.024 | ralimetinib 0.005 | [11] 0.033 | [12] 0.116 | [13] 0.053 | pinometostat -0.115 | [14] -0.007 | [15] 0.103

(next part)

SLC12A2 (UniProt P55011)
inactive: erlotinib 0.002 | [1] 0.045 | [2] 0.019 | [3] 0.016 | [4] 0.024 | [5] 0.001 | [6] 0.006 | [7] -0.06 | [8] -0.05 | [9] 0.076 | IRAK-1-4 Inhibitor I 0.02 | ibrutinib 0.033 | [10] -0.063 | ralimetinib -0.025 | [11] -0.03 | [12] 0.159 | [13] 0.013 | pinometostat -0.01 | [14] 0.008 | [15] 0.036

SLC10A4 (UniProt Q96EP9)
inactive: erlotinib 0.042 | [1] -0.282 | [2] -0.05 | [3] -0.062 | [4] 0.091 | [5] 0.03 | [6] -0.365 | [7] -0.228 | [8] 0.102 | [9] -0.176 | IRAK-1-4 Inhibitor I -0.224 | ibrutinib -0.105 | [10] -0.111 | ralimetinib -0.133 | [11] -0.078 | [12] -0.126 | [13] 0.053 | pinometostat 0.044 | [14] 0.125 | [15] 0.149

SLC20A1 (UniProt Q8WUM9)
inactive: erlotinib 0.002 | [1] -0.061 | [2] -0.036 | [3] 0.046 | [4] 0.036 | [5] 0.025 | [6] -0.023 | [7] -0.043 | [8] 0.004 | [9] 0.044 | IRAK-1-4 Inhibitor I 0.054 | ibrutinib -0.014 | [10] -0.051 | ralimetinib -0.046 | [11] 0.02 | [12] 0.05 | [13] 0.114 | pinometostat 0.022 | [14] 0.022 | [15] -0.002

SLC25A38 (UniProt Q96DW6)
inactive: erlotinib 0.007 | [1] -0.001 | [2] -0.023 | [3] -0.036 | [4] 0.129 | [5] 0.054 | [6] 0.023 | [7] 0.005 | [8] -0.005 | [9] 0.055 | IRAK-1-4 Inhibitor I 0.005 | ibrutinib -0.001 | [10] 0.003 | ralimetinib -0.053 | [11] 0.035 | [12] 0.049 | [13] -0.018 | pinometostat -0.03 | [15] 0.01

SLC30A5 (UniProt Q8TAD4)
inactive: erlotinib -0.054 | [1] 0.009 | [2] 0.033 | [3] -0.02 | [4] 0.069 | [5] 0.106 | [6] -0.088 | [7] -0.022 | [8] -0.005 | [9] 0.033 | IRAK-1-4 Inhibitor I -0.029 | ibrutinib -0.08 | [10] -0.043 | ralimetinib -0.046 | [11] 0.013 | [12] 0.075 | [13] 0.016 | pinometostat 0.005 | [14] -0.033 | [15] 0.064
